Results are given in words; binding and its absence hold for the method and conditions named. In cells and extracts the contact can be indirect.
Target: DCC without CRY2 (DCC) (Mus musculus) (UniProt P70211)
Experiment: co-IP; myc-tagged and V5-tagged copies co-expressed in HEK293T; cells exposed to blue light pulses (440 nm LED) for 15 min, lysed in PLC buffer (50 mM HEPES pH 7.5, 150 mM NaCl, 1% Triton X-100); IP with anti-V5 antibody on Protein G sepharose, 4 °C, 30 min; blot for myc

Protein sequences, listed by entry. Tags and fused reporters are not part of them. Residues count along the entry.
UniProt P70211, residues 26-1447: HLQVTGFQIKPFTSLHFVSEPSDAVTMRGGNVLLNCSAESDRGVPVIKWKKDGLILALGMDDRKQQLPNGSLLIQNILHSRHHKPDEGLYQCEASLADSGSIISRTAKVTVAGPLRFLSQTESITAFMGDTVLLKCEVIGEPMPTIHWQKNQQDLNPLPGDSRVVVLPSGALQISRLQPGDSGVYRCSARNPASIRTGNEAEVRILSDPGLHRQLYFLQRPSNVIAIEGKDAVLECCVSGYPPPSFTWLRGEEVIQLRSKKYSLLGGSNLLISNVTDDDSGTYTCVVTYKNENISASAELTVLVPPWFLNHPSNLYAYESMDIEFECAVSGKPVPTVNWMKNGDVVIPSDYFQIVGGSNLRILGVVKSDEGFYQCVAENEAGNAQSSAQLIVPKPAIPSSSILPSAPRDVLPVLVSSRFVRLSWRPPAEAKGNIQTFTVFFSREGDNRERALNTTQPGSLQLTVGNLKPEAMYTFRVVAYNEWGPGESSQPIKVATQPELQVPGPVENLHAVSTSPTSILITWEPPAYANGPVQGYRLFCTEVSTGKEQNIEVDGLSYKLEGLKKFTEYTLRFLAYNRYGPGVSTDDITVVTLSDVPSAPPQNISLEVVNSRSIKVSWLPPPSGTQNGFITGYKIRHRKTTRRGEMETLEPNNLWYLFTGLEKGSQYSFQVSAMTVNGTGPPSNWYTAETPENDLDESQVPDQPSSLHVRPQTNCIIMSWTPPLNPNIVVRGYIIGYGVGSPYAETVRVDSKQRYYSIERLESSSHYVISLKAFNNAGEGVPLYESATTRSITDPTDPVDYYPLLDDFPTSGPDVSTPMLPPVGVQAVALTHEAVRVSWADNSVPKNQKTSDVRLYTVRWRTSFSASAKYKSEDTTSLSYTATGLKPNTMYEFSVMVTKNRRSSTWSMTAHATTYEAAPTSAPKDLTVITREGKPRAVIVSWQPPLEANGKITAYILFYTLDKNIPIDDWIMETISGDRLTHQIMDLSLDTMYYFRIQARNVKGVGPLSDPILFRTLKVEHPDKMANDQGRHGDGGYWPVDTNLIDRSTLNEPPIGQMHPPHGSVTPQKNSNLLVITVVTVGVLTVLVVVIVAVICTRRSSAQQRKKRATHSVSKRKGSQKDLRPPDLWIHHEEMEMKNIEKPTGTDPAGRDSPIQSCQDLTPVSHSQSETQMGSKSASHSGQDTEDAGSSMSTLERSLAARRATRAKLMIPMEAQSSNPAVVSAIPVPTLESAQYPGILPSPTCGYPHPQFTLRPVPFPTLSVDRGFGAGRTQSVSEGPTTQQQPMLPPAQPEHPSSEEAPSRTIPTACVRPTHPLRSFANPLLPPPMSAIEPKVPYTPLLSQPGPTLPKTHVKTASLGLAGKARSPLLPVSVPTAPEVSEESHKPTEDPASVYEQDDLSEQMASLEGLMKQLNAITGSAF

binding: no binding
Substance: DCC without CRY2 (DCC) (from UniProt P70211 26-1447) (receptor)

Source: article PMC4823752
